Several values for one entry are separate records, joined by “and”; a condition that tells them apart may be missing. Identical values can stand only once. The list shows a part of the results. The main result of the screen is listed elsewhere. These columns were measured beside it and carry no call. Most of these compounds were active or inconclusive in the main read-out, so they are no random draw. The note in brackets gives the kind of curve behind each potency; many fits are weak.
Test: qHTS Assay for Modulators of Lamin A Splicing
Conditions: HeLa LMNA splicing GFP/RFP minigene ratio, 48 h
Outline: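 Read-out is the ratio of GFP to DsRed2 object intensity, acquired by 488 nm laser-scanning cytometry on HeLa lamin A-EGFP minigene reporter cells. Compound incubation 48 hrs at 37 °C in Opti-MEM with 2% FBS; DMSO 0.5% final.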

[1] = measured here: RFP viability control channel
[2] = measured here: GFP splicing reporter channel

O=c1[nH]c(=O)n(Cc2ccco2)c2c1C(C(F)(F)F)(C(F)(F)F)N=C(c1ccco1)N2
AC50 [1]: 10 µM [rising, partial curve, poor fit]

CCOc1ccc(NS(=O)(=O)c2ccc(NS(C)(=O)=O)cc2)cc1
AC50 [2]: 17.8 µM [rising, partial curve, poor fit]
AC50 [1]: 15.8 µM [rising, single point]

CC1(C)O[C@H]2C[C@@H]3[C@H]4CCC5=CC(=O)CC[C@@]5(C)[C@]4(F)[C@@H](O)C[C@@]3(C)[C@@]2(C(=O)CCl)O1
AC50 [2]: 12.6 µM [falling, single point]
AC50 [1]: 12.6 µM [rising, single point]

CCOC(=O)c1c(-c2ccccc2)oc2ccc(O)c(CN3CCN(C)CC3)c12
AC50 [2]: 5.01 µM [rising, full curve, poor fit]
AC50 [1]: 12.6 µM [rising, partial curve]

COc1cc(C(=O)Nc2cccc(-c3nnc(-c4ccco4)o3)c2)ccc1OC(C)=O
AC50 [2]: 0.0126 µM [falling, full curve, poor fit]
AC50 [1]: 0.0126 µM [falling, full curve, poor fit]

CCNC(=S)Nc1ccc(OC(F)(F)F)cc1
AC50 [2]: 2.82 µM [falling, full curve, poor fit]

O=S(=O)(N/N=C/c1ccc2c(c1)OCCO2)c1ccc(Cl)cc1
AC50 [1]: 6.31 µM [falling, single point]

O=C(Nc1cccc(-c2nc3ccccc3s2)c1)c1cc(-n2cnnc2)ccc1Cl
AC50 [2]: 12.6 µM [rising, partial curve]
AC50 [1]: 14.1 µM [rising, single point]

COc1cc(/C=N/NC(=O)c2ccc(COc3cc(C)ccc3C(C)C)cc2)cc(OC)c1O
AC50 [1]: 35.5 µM [rising, single point]

COc1ccc(CCN(Cc2cc3cccc(C)c3n3nnnc23)C(=O)c2ccncc2)cc1OC
AC50 [1]: 7.08 µM [falling, full curve, poor fit]

CCCCc1ccc(NC(=S)NCc2ccc(OC)cc2)cc1
AC50 [1]: 35.5 µM [falling, partial curve, poor fit]

Cc1cc(C)c(S(=O)(=O)Nc2ccc(C(N)=O)cc2)c(C)c1
AC50 [1]: 7.94 µM [falling, full curve]

CC(C)CC(=O)NC1(C(F)(F)F)C(=O)Nc2c1c(=O)n(C)c(=O)n2C (stereo unspecified)
AC50 [1]: 2.51 µM [rising, partial curve, poor fit]

Cc1nc(SCC(=O)N(C)Cc2ccco2)c2c(C)c(C)sc2n1
AC50 [2]: 12.6 µM [rising, partial curve, poor fit]

CCN(CC)c1ccc(N=Cc2ccc(N(CC)CC)cc2O)cc1
AC50 [1]: 15.8 µM [rising, single point]

Nc1cc(=O)[nH]c(=O)n1-c1cccc(F)c1
AC50 [2]: 0.251 µM [falling, full curve, poor fit]

COc1ccc(/C=C/C(=O)Nc2ccc(C34CC5CC(CC(O)(C5)C3)C4)cc2)cc1OC
AC50 [1]: 0.891 µM [rising, full curve]

COc1ccc(NC(=O)c2ccc(-c3ccc([N+](=O)[O-])cc3)o2)cc1OC
AC50 [2]: 0.00891 µM [rising, full curve, poor fit]
AC50 [1]: 20 µM [rising, single point]

O=Cc1ccc(OCc2cn3ccccc3n2)cc1
AC50 [1]: 0.158 µM [rising, full curve, poor fit]

Cn1c(=O)c([N+](=O)[O-])c(Oc2ccccc2)c2ccccc21
AC50 [2]: 22.4 µM [falling, single point]

O=c1cc(-c2ccc3c(c2)OCCO3)oc2ccc(Cl)cc12
AC50 [1]: 10 µM [rising, partial curve, poor fit]

O=C(Nc1ccc(NC(=O)c2ccccn2)cc1)C(=O)Nc1ccc2c(c1)OCCO2
AC50 [1]: 0.1 µM [rising, full curve]

c1coc(CNc2c3c(nc4ccccc24)CCC3)c1
AC50 [1]: 22.4 µM [rising, single point]

Cc1ccc(OCC(=O)n2nc(C)cc2C)c(C)c1
AC50 [2]: 0.01 µM [falling, full curve, poor fit]
AC50 [1]: 0.00316 µM [falling, full curve, poor fit]

O=C(CC12CC3CC(CC(C3)C1)C2)N/N=C/c1ccc([N+](=O)[O-])o1
AC50 [1]: 22.4 µM [rising, single point]

COc1ccc(N2C(=O)CC(NCCNc3ccc([N+](=O)[O-])cn3)C2=O)cc1 (stereo unspecified)
AC50 [2]: 1 µM [rising, partial curve]

Cc1c(Cl)cccc1NC(=S)N=Nc1c(O)n(CN2CCOCC2)c2ccccc12
AC50 [2]: 8.91 µM [rising, partial curve]
AC50 [1]: 11.2 µM [rising, partial curve]

Cc1cccc2cc(CN(CC3CCCO3)C(=O)c3ccco3)c(=O)[nH]c12 (stereo unspecified)
AC50 [1]: 6.31 µM [falling, single point]

Cc1ccc(/C=N/NC(=O)CCCOc2ccc(Cl)cc2Cl)cc1
AC50 [1]: 5.62 µM [rising, partial curve, poor fit]

CCCCn1c(N)c(NCc2ccccc2OC)c(=O)[nH]c1=O
AC50 [2]: 3.16 µM [rising, partial curve]

Cc1ccc(NC(=O)COC(=O)c2cc(-c3cccs3)nn2-c2ccccc2)cc1[N+](=O)[O-]
AC50 [2]: 0.0316 µM [falling, full curve, poor fit]
AC50 [1]: 0.00891 µM [falling, full curve, poor fit]

CCN(CC)c1ccc(C(=S)N2CCN(c3ccccc3)CC2)cc1
AC50 [2]: 35.5 µM [rising, single point]
AC50 [1]: 31.6 µM [rising, single point]

COc1cccc2c1OC1(C)CC2NC(=O)N1c1cccc(C(=O)N2CCN(c3ccccn3)CC2)c1 (stereo unspecified)
AC50 [1]: 17.8 µM [rising, single point]

Cc1ccc(Cl)cc1N1CCN(S(=O)(=O)c2cccc(S(=O)(=O)N3CCCC3)c2)CC1
AC50 [2]: 20 µM [rising, single point]
AC50 [1]: 35.5 µM [rising, single point]

Cc1cccc(-c2cc(C(=O)Nc3ccc4c(c3)OCCO4)c3ccccc3n2)c1
AC50 [2]: 2.82 µM [rising, partial curve]

NC(=O)c1cnccn1
AC50 [2]: 4.47 nM [falling, full curve, poor fit] and 3.55 nM [falling, full curve, poor fit]

Cc1cccn2cc(-c3ccc(S(=O)(=O)N4CCOCC4)cc3)nc12
AC50 [1]: 14.1 µM [rising, partial curve]

Cc1cccc(NC(=O)CN2C(=O)C3(SCC(=O)N3c3ccccc3)c3ccccc32)c1 (stereo unspecified)
AC50 [1]: 12.6 µM [rising, partial curve, poor fit]

CCOC(=O)/C=C1\SCC(=O)N1CC(=O)Nc1cccc(F)c1
AC50 [1]: 35.5 µM [rising, single point]

COC(=O)c1ccc(C2C(C(=O)Nc3ccc(C)cc3C)=C(C)Nc3ncnn32)cc1 (stereo unspecified)
AC50 [1]: 25.1 µM [rising, single point]

Cc1ccc(C2CC(=O)NC(SCC(=O)OCc3ccccc3)=C2C#N)o1 (stereo unspecified)
AC50 [1]: 35.5 µM [rising, single point]

Cc1ccc(-c2csc(NC(=O)CSc3nc(C)cc(=O)[nH]3)n2)cc1
AC50 [2]: 11.2 µM [rising, partial curve]

CC(C)(C)NC(=O)[C@@H]1C[C@H]2CCCC[C@@H]2CN1C[C@H](O)[C@H](Cc1ccccc1)NC(=O)[C@@H](CC(N)=O)NC(=O)c1ccc2ccccc2n1
AC50 [2]: 7.08 µM [falling, partial curve]
AC50 [1]: 6.31 µM [falling, partial curve, poor fit]

CCOC(=O)c1sc(Nc2nc3cc4c(cc3s2)OCO4)cc1C
AC50 [2]: 12.6 µM [rising, single point]
AC50 [1]: 12.6 µM [rising, partial curve]

Cn1c(=O)c2c(ncn2CC(=O)N/N=C/C(Br)=C/c2ccccc2)n(C)c1=O
AC50 [1]: 10 µM [rising, partial curve, poor fit]

CNC(=S)N/N=C/c1cccc(OCc2ccccc2F)c1
AC50 [2]: 35.5 µM [rising, single point]
AC50 [1]: 35.5 µM [rising, single point]

Cc1ccc(O)c(NC(=O)CSc2n[nH]c(C)c2[N+](=O)[O-])c1
AC50 [2]: 14.1 µM [falling, single point]

COc1ccc(C(=O)Nc2sc(C)c(-c3ccccc3)c2C#N)cc1OC
AC50 [1]: 25.1 µM [rising, single point]

Cc1ccc(NC(=O)CSc2ncnc3ccccc23)cc1S(=O)(=O)N1CCCCC1
AC50 [2]: 5.62 µM [rising, single point]
AC50 [1]: 8.91 µM [rising, partial curve, poor fit]

CCCCCC(=O)Nc1ccc2ccccc2c1
AC50 [1]: 14.1 µM [rising, single point]

CCOC(=O)c1ccc(CN(Cc2ccc(F)cc2)S(=O)(=O)c2ccc(F)cc2)cc1
AC50 [2]: 0.00891 µM [falling, full curve]

O=C(Nc1ccc(C(F)(F)F)cc1)c1cc(S(=O)(=O)NC2CCCCCC2)ccc1F
AC50 [2]: 22.4 µM [falling, partial curve]
AC50 [1]: 25.1 µM [falling, partial curve]

O=C(COc1ccc(S(=O)(=O)N2CCCC2)cc1)Nc1ccc2c(c1)OCCO2
AC50 [2]: 0.0794 µM [rising, full curve, poor fit]
AC50 [1]: 0.891 µM [rising, partial curve, poor fit]

Cc1cc(/C=C(\C#N)C(=O)NCC2CCCO2)c(C)n1-c1ccc(Cl)cc1 (stereo unspecified)
AC50 [1]: 12.6 µM [rising, partial curve]
